Measurements from article PMC6858455.

Amino acid sequences for entries named in this document (tags omitted).
UniProt Q96KS0: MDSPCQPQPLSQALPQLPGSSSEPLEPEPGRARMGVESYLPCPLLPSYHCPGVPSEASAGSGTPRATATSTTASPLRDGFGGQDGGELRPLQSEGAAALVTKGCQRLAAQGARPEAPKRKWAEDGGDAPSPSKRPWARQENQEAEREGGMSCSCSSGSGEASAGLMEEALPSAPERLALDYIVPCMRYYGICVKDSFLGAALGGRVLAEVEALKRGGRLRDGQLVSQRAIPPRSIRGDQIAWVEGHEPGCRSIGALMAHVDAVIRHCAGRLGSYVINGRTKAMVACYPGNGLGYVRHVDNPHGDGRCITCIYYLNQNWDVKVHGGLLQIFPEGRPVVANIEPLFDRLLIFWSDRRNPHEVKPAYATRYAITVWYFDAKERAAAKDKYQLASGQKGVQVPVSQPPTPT

How the values were obtained:
[1] = molecular target: FLAG- and HA-tagged EglN2, wild-type (WT) (UniProt Q96KS0); assay: affinity purification with mass spectrometry; TAP-TAG purification (anti-FLAG M2 gel, then HA beads) of FLAG-HA-WT EglN2 from HIF-1α-depleted MDA-MB-231 cells, normoxia or hypoxia + DMOG
[2] = molecular target: GST-EglN2 (UniProt Q96KS0); assay: affinity purification with mass spectrometry; pull-down with GST-control or GST-EglN2 beads from lysates of HIF-1α-depleted MDA-MB-231 cells, normoxia or hypoxia + DMOG, then mass spectrometry; only the target purified

binding [1]: binds
binding [2]: binds
B1: adenylosuccinate lyase (ADSL), endogenous (enzyme, UniProt P30566 1-484)
chain: MAAGGDHGSPDSYRSPLASRYASPEMCFVFSDRYKFRTWRQLWLWLAEAEQTLGLPITDEQIQEMKSNLENIDFKMAAEEEKRLRHDVMAHVHTFGHCCPKAAGIIHLGATSCYVGDNTDLIILRNALDLLLPKLARVISRLADFAKERASLPTLGFTHFQPAQLTTVGKRCCLWIQDLCMDLQNLKRVRDDLRFRGVKGTTGTQASFLQLFEGDDHKVEQLDKMVTEKAGFKRAFIITGQTYTRKVDIEVLSVLASLGASVHKICTDIRLLANLKEMEEPFEKQQIGSSAMPYKRNPMRSERCCSLARHLMTLVMDPLQTASVQWFERTLDDSANRRICLAEAFLTADTILNTLQNISEGLVVYPKVIERRIRQELPFMATENIIMAMVKAGGSRQDCHEKIRVLSQQAASVVKQEGGDNDLIERIQVDAYFSPIHSQLDHLLDPSSFTGRASQQVQRFLEEEVYPLLKPYESVMKVKAELCL

Results are given in words; binding and its absence hold for the method and conditions named. Binding seen in cells or lysates may run through a third protein. Here binding means that the protein was enriched with, or labelled near, the bait; the list need not be complete.
